Measured values as given in PubChem BioAssay AID1259354 (Paczesny and Yang Labs, IUPUI and University of Michigan, 2018).
The whole screen tested about 78,000 compounds, of which about 1,800 (2.3%) were called active. This list was built around the results that the source calls inconclusive (neither active nor inactive); the mix of calls is not that of the screen. Rule as the data show it: active = inhibition above about 30%; inconclusive = mostly about 10% to 28%; inactive = weaker than that.

The chains behind the UniProt entries cited, without tags or fusion partners. Where a name states a change or a piece, a line headed by the entry shows the natural chain unless it says otherwise.
UniProt Q01638: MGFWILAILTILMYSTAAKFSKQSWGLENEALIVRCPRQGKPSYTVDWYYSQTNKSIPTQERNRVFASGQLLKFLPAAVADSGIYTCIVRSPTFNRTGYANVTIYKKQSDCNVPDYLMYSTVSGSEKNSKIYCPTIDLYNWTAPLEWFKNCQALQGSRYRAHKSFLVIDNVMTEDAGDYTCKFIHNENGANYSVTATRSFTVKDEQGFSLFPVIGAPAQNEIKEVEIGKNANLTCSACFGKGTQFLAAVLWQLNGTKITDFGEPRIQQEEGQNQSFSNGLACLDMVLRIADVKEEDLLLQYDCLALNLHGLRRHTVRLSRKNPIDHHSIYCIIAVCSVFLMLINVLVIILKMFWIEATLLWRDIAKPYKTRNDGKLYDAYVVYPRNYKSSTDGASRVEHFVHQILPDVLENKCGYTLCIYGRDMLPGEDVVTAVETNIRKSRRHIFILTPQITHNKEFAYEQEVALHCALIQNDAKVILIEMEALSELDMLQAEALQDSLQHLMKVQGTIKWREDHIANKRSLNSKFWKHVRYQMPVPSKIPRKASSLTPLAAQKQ

The compounds below were run against Interleukin-1 receptor-like 1 (Homo sapiens) (UniProt Q01638) (assay: blocks human ST2 binding to IL-33, primary screen, biochemical, AlphaLISA (AID 1259354)). Conditions: AlphaLISA ST2-Fc/biotin-IL-33 interaction, 1 h; at 17 µM, hits give high values.

| SMILES | inhibition |
| --- | --- |
| CCOc1cc(CN2CCN(c3cccc(C)c3C)CC2)ccc1O | inconclusive: 14% |
| COc1ccc2nc(CNC(=O)Cc3nc(C)sc3C)[nH]c2c1 | inconclusive: 15% |
| O=C(C(Cc1ccccc1)NS(=O)(=O)c1cccs1)N1CCc2ccccc21 (centres undefined) | inconclusive: 10% |
| O=[N+]([O-])c1ccc(-c2nc(NCCO)c3ccccc3n2)cc1 | inconclusive: 10% |
| CCOC(=O)c1sc(=NC(=O)c2cccc(Oc3ccccc3)c2)n(C)c1C | inactive |
| COc1ccc(NC(=O)c2ccc(Cl)cc2)cc1 | inactive |
| CC(=O)N1CCC(Cn2cc(Cn3c(C)nc4ccccc43)nn2)CC1 | inconclusive: 19% |
| Cc1ccsc1[C@@H]1CCN(C(=O)Cn2cc(C)c(=O)[nH]c2=O)C[C@H]1O | inactive |
| Cc1cccn2c(=O)c3cc(C(=O)NC(C)c4ccccc4)c(=N)n(CCOCCO)c3nc12 (centres undefined) | inconclusive: 13% |
| CCOC(=O)N1CCC(NC2CCN(c3ccc(C(=O)NCCN4CCOCC4)cc3)CC2)CC1 | inconclusive: 11% |
| Cc1cccc(NC(=O)c2ccccc2Cl)c1 | inactive |
| Cc1cc2ncn(C(=O)c3cccs3)c2cc1C | inactive |
| O=C(O)C1CSC(c2ccccc2Cl)N1C(=O)c1ccc(Cl)cc1 (centres undefined) | inconclusive: 26% |
| CCc1ccc(S(=O)(=O)Nc2ccc(-c3cn4ccccc4n3)cc2)cc1 | inconclusive: 11% |
| Cc1ccc(S(=O)(=O)N2C/C(=C\c3ccccc3)c3c2cc([N+](=O)[O-])cc3[N+](=O)[O-])cc1 | active: 35% |
| Oc1cc2c(c(Cl)c1O)CCNCC2c1ccccc1 (centres undefined) | inconclusive: 12% |
| O=C(Nc1ccnn1C1CCN(CCC2CCOC2)CC1)c1ccccc1 (centres undefined) | inconclusive: 28% |
| COCCCNC(=O)c1nn(C)c2c1CN(C(=O)C1(c3ccc(Cl)cc3)CCC1)CC2 | inconclusive: 15% |
| Cc1cccc(CN(Cc2ccccc2)Cc2ncc[nH]2)n1 | inconclusive: 11% |
| C=CCOc1ccccc1/C=C1/C(=O)N(c2cccc(Br)c2)N=C1C | inconclusive: 22% |
| Cc1ccc(-c2nnc([C@H]3CCN(Cc4ccc(C(=O)O)cc4)C3)o2)cc1 | inconclusive: 11% |
| O=C(Nc1ccc2[nH]c(=O)[nH]c2c1)c1cncc(Br)c1 | inconclusive: 22% |
| CC(=O)Nc1ccc(-c2nccn2CCc2c[nH]c3ccccc23)cc1 | inconclusive: 10% |
| CCN(C(C)=O)C1CCN(Cc2ccc(C(=O)Nc3c(C)noc3C)cc2)C1 (centres undefined) | inconclusive: 14% |

| SMILES | inhibition |
| --- | --- |
| O=C(C[C@@H]1CCNC[C@@H]1Cc1cc(CC2CCCCC2)on1)Nc1ccccc1 | inconclusive: 11% |
| CCCSc1nnc(NC(=O)c2ccc(F)cc2)s1 | inactive |
| CCSCC(C)NC1CCN(c2cccc(C)c2)CC1 (centres undefined) | inconclusive: 16% |
| O=C(CSc1nc(-c2ccccc2)[nH]c1-c1ccc(Cl)cc1)NCc1ccco1 | inactive |
| Cc1ccc(NC(=O)CC(=O)N(C)CCN2CCCCCC2)c(C)c1 | inconclusive: 11% |
| Cc1cc(Nc2ccc(Cl)cc2)nc(N2CCOCC2)n1 | inconclusive: 11% |
| COc1ccccc1NC(=O)C1c2cc(OC)c(OC)cc2C(=O)N(C)C1c1ccccc1F (centres undefined) | inactive |
| Cc1cc(C)cc(NC(=O)NCCc2nc3cccnc3n2-c2ccccc2)c1 | inconclusive: 10% |
| CN(CC1CCN(CCc2ccc(F)cc2)CC1)C(=O)/C=C/c1cnn(C)c1 | inactive |
| COc1ccc(Br)cc1S(=O)(=O)n1cnc2ccccc21 | inconclusive: 10% |
| Clc1ccc(-c2ncnn2-c2ccc(Br)nc2)c(Cl)c1 | inactive |
| Nc1ccccc1-c1nc2ccccc2[nH]1 | inconclusive: 14% |
| CCOCCCn1c(SCC#N)nc2c(sc3ccccc32)c1=O | inconclusive: 11% |
| CC(C)CCn1cnc2c(cnn2-c2ccc(Cl)cc2)c1=O | inconclusive: 29% |
| CCOc1ccc(S(=O)(=O)Nc2ccc(OC)c(Cl)c2)c2cccnc12 | inconclusive: 12% |
| COc1ccc2cc(C3CN(C(=O)C4CCOCC4)CCO3)ccc2c1 (centres undefined) | inconclusive: 15% |
| Cc1n[nH]c(C)c1S(=O)(=O)N1CCC(C(=O)NCc2ccco2)CC1 | inactive |
| CC(C)(CC(=O)O)CC(=O)N[C@H]1CO[C@H]2[C@@H]1OC[C@@H]2n1nnnc1Oc1ccc(-n2ccnc2)cc1 | inconclusive: 14% |
| CCN(CC)c1ccc2c(c1)oc1nc(=N)c(C#N)c3[nH]c(N)c(C#N)c2c13 | inconclusive: 15% |
| COCCN[C@H]1[C@@H]2OC[C@@H](O2)[C@@H](NC(=O)Nc2cccc(C#N)c2)[C@@H]1O | inconclusive: 13% |
| Cc1nc2cc(-c3ccccc3)nn2c(C)c1CCC(=O)Nc1ccc2c(c1)OCCO2 | inconclusive: 12% |
| Cc1cccc(CSC2=NCCN2C(=O)c2ccc(Br)cc2)c1 | inconclusive: 12% |
| CCOc1cccc2sc(N3CCc4ccccc4C3)nc12 | inconclusive: 11% |
| NS(=O)(=O)c1ccc(-n2cccc2C=C2C(=O)NC(=O)NC2=O)cc1 | inactive |

Fetched by structure from the list above, 2 records:

| SMILES | inhibition |
| --- | --- |
| Cc1cc(Nc2ccc(Cl)cc2)nc(N2CCOCC2)n1 | inconclusive: 11% |
| CCSCC(C)NC1CCN(c2cccc(C)c2)CC1 (centres undefined) | inconclusive: 16% |

3 entries out of the list, arranged by count of non-hydrogen atoms, ascending.

| SMILES | inhibition |
| --- | --- |
| Cc1cccc(CSC2=NCCN2C(=O)c2ccc(Br)cc2)c1 | inconclusive: 12% |
| Cc1ccc(NC(=O)CC(=O)N(C)CCN2CCCCCC2)c(C)c1 | inconclusive: 11% |
| CC(C)(CC(=O)O)CC(=O)N[C@H]1CO[C@H]2[C@@H]1OC[C@@H]2n1nnnc1Oc1ccc(-n2ccnc2)cc1 | inconclusive: 14% |

(list continues)

| SMILES | inhibition |
| --- | --- |
| COc1ccccc1C1CN(CCNC(=O)Cc2cccs2)Cc2ccccc2O1 (centres undefined) | inactive |
| COc1cccc(-c2cc(C(F)(F)F)nc(N3CCN(C)CC3)n2)c1 | inconclusive: 16% |
| Clc1c(-c2nnc(-c3cccs3)o2)sc2ccccc12 | inconclusive: 13% |
| Cc1ccccc1CSC1=NCCN1C(=O)c1cccs1 | inactive |
| O=C(CN1C(=O)C2CCCCN2C(=O)c2ccccc21)NCc1ccc2c(c1)OCO2 (centres undefined) | inactive |
| Cc1cccc(NS(=O)(=O)c2cccc3cccnc23)c1C | inactive |
| CCOc1ccc2c(=O)c(-c3ccccc3)c(C)oc2c1C | inactive |
| COc1ccc(C(=O)Nc2cccc(-c3nc4cc(C)ccc4o3)c2)cc1[N+](=O)[O-] | inactive |
| Cc1ccc(N=c2oc3ccc(Cl)cc3cc2C(N)=O)cc1 | inconclusive: 11% |
| CC1CCN(C(=O)c2nn3c(c2Cl)NC(c2ccco2)CC3C(F)(F)F)CC1 (centres undefined) | inactive |
| CCOc1ccc(CCCC(=O)N2CC[C@H](NC(C)=O)C2)cc1C | inconclusive: 16% |
| Cc1ccc(S(=O)(=O)N(CCC#N)C2CCCCC2)cc1 | inconclusive: 13% |
| C=CCOc1ccc(C2C(C(=O)OC(C)C)=C(C)N=C3SCCC(=O)N32)cc1 (centres undefined) | inactive |
| Cc1c(N=Cc2ccc([N+](=O)[O-])cc2)c(=O)n(-c2ccccc2)n1C | inconclusive: 15% |
| CCn1cc(CN2CCC(N3CCCC(C(=O)N4CCCC4)C3)CC2)cn1 (centres undefined) | inconclusive: 11% |
| O=C(CSc1nnc(Cc2cc(=O)[nH]c(=O)[nH]2)n1-c1ccccc1)NCc1ccco1 | inconclusive: 14% |
| CC(C)C(=O)Nc1nc2cc(NC(=O)C3CCN(S(=O)(=O)N4CCCC4)CC3)ccc2s1 | inactive |
| Cc1nc(C2CC2)ncc1C(=O)N1CCC(Cc2cccc(C(=O)O)c2)CC1 | inactive |
| O=C(CCCN1CCC(O)(c2cccc(C(F)(F)F)c2)CC1)c1ccc(F)cc1 | inconclusive: 17% |
| COc1cccc(-c2nnc(NC(=O)c3ccc(S(=O)(=O)N4CCCCC4C)cc3)o2)c1 (centres undefined) | inactive |
| CCn1ccnc1C(O)c1cc(OC)c(OC)c(OC)c1 (centres undefined) | inactive |
| CCN(CC)c1ccc(C(=O)Nc2ccc(-c3nc4ccccc4[nH]3)cc2)cc1 | inactive |
| CCOC(=O)C1=C(c2ccccc2)OC(N)=C(C#N)C1c1ccc(Cl)c(Cl)c1 (centres undefined) | inconclusive: 15% |
| Cc1ccc(C2(O)CCN(C(=O)C(C)n3cnc4ccccc43)CC2)nc1 (centres undefined) | inconclusive: 16% |

A portion taken from the entries so far, as a working copy:

| SMILES | inhibition |
| --- | --- |
| O=C(C[C@@H]1CCNC[C@@H]1Cc1cc(CC2CCCCC2)on1)Nc1ccccc1 | inconclusive: 11% |
| CCCSc1nnc(NC(=O)c2ccc(F)cc2)s1 | inactive |

Continuation.

| SMILES | inhibition |
| --- | --- |
| CCCn1cnc2c1CN(C(=O)COc1ccccc1)[C@H](C(=O)OC)C2 | inactive |
| CCc1ccccc1-c1nc(OC)nc(OC)n1 | inactive |
| O=[N+]([O-])c1cccc([C@H]2NCC[C@@]3(O)CCCC[C@H]23)c1 | inactive |
| Cc1ccc(S(=O)(=O)NC2CCCCC2)c2nsnc12 | inconclusive: 27% |
| NS(=O)(=O)c1ccc(CCNC(=O)CCn2cnc3c([nH]c4ccccc43)c2=O)cc1 | inconclusive: 14% |
| Cc1ccoc1C(=O)N(C)Cc1cc(-c2cccs2)n[nH]1 | inconclusive: 18% |
| CC(=O)c1ccc(C(=O)N2CCC3(CCCN(CCC4CCCCC4)C3)C2)cc1 (centres undefined) | inactive |
| Cc1ccc(NCN2C(=O)C(=O)c3ccccc32)nc1 | inconclusive: 24% |
| O=S(=O)(N=C(c1ccccc1F)N1CCOCC1)c1ccccc1 | inactive |
| COC(=O)c1ccc(N2C(=O)c3cc4ccccc4cc3C2=O)cc1 | inconclusive: 21% |
| Cc1nnc(CN2CCOc3c(O)cc(-c4cccc(Cl)c4)cc3C2)s1 | inactive |
| COc1ccc(Cl)cc1NC(=O)CN(c1ccccc1)S(=O)(=O)N(C)C | inconclusive: 16% |
| COC(=O)[C@H]1CN(C(=O)c2cccnc2)CCN1C(C)=O | inactive |
| CC1CCCCN1S(=O)(=O)c1ccc2c(c1)CCN2C(=O)C1CC1 (centres undefined) | inconclusive: 10% |
| COC(=O)c1ccccc1NC(=O)N1CCC[C@@H](O)[C@H](NC(=O)c2ccc(OCCN3CCCC3)cc2)C1 | inconclusive: 10% |
| COc1cccc(C2Nc3ccccc3NC3=C2C(=O)CCC3)c1 (centres undefined) | inconclusive: 21% |
| Cc1ccc(N2C(=O)[C@@H]3[C@H]4C=CC([C@@H]3C2=O)C42CC2)c(C)c1 | inconclusive: 21% |
| CCCn1cnc2c1CN(S(=O)(=O)c1ccc(OC)cc1)[C@H](C(=O)OC)C2 | inactive |
| COCCc1nc2ccc(C(=O)N3CCc4[nH]c5ccc(OC)cc5c4C3)cc2o1 | inconclusive: 10% |
| CCOc1ccc(OCC)c(S(=O)(=O)N2CCN(c3nc(C)cc(Nc4ccccc4)n3)CC2)c1 | inconclusive: 15% |
| Cc1ccc(Nc2c(-c3ccco3)nc3cccc(C)n23)cc1 | inconclusive: 20% |
| Cc1cccc(C(=O)N2CCN(c3ccc([N+](=O)[O-])c(NC4CC4)c3)CC2)c1 | inconclusive: 20% |
